Experimental data taken from paper PMC8164090.
These are yes or no findings as the source states them, for the method shown. In cells and extracts the contact can be indirect. A result given as binding can be weak or reduced; the word gives no strength. Tags and fused reporters may be left off the sequences shown.

Tests used:
Assay in all cases: co-IP; Grip-GFP IPs: purified MBP-Cnn fragments on anti-MBP high-capacity ProteinA beads; 65 µl extract of embryos expressing GFP-tagged Grip proteins, overnight at 4°C; five washes in PBST; blots with anti-GFP, anti-Grip71, anti-γ-tubulin; only the target purified
[1] = target: MBP-tagged N-terminal fragment of Cnn-C lacking residues 1-77 (MBP-Cnn-C-N^Δ1-77) (Drosophila melanogaster)
[2] = target: MBP-tagged N-terminal fragment of Cnn-T (MBP-Cnn-T-N) (Drosophila melanogaster)
[3] = target: N-terminal fragment of Cnn-C with a phosphomimetic mutation at S186 (Cnn-C-N^S186) (Drosophila melanogaster)

Measured: binding

B1: Grip75^GCP4-sfGFP (protein, UniProt Q9VKU7 1-650)
chain: MIHDLLLACRSHNPEQLGIKAFNETTVIDQFIHPCEREIFMDIIKIIKVYQEVEQFTHSSGRKSDTHGELPDSLHGYYLLNLAKGIEMALEEYYAEIGRLEKYCLGNERNSLSYVYNALYAKFPLLVFMRNLITEIHVLNLRGCVLLHNLHQQCEHGDIQLEKAIKIIMKPVKNAFFSSLAHWLLFGVIDDVHSEFFIKFTPTDAVDGSSFSKSATCSLLSAEKNPEDYIWQYEVNMSQLPGFFSIVLAEKVLFVGQTVLVFKMGRNVKVKNKTDPLAAKLAELDSDDIYQLWSGRESEFFKMVVDLSNEDTINVFRLEKVIIDIKNYVSARLSEIAVNEVDLERQMGLIKDFFLLGRGEFYLEFCSQMVGTMETYREERFKNVTRSFELAATVTGITDDLDKFSLICQRSTSEPDDTSDFNFLQGLSLKYEYEWPLNLLFSPTTIERYNNIFRFLLIIRTYQYEIQRVWAKQTWRAKSAKDVPPNNKIITLRNYLMFFLNNMQYYIQVDVLESQFGILMNVIKSRSDFEVIQRAHTVFLANVLSHCFLLNESETQLNVTGSQNRNPIYGTLLKLFGICEKFAHMTQTKDPSDDLEDEVDQLNESFGVQIASLIQLLVDVKSASCLGPLSQLLLRLDFNCWFSASHNTSA
binds: all assays above
